Reference: patent publication US9132174 (ANCHORED RSK3 INHIBITORS, dated 2015)
These are yes or no findings as the source states them, for the method shown. For part of these data: Binding seen in cells or lysates may run through a third protein. Some results given as binding are weak or reduced against the parent protein; the word gives no strength. For part of these data: Sequences can lack the tags named with a protein.

T1: myc-tagged mAKAP 1286-1833 (UniProt Q9WVC7)
T1 sequence (looked up): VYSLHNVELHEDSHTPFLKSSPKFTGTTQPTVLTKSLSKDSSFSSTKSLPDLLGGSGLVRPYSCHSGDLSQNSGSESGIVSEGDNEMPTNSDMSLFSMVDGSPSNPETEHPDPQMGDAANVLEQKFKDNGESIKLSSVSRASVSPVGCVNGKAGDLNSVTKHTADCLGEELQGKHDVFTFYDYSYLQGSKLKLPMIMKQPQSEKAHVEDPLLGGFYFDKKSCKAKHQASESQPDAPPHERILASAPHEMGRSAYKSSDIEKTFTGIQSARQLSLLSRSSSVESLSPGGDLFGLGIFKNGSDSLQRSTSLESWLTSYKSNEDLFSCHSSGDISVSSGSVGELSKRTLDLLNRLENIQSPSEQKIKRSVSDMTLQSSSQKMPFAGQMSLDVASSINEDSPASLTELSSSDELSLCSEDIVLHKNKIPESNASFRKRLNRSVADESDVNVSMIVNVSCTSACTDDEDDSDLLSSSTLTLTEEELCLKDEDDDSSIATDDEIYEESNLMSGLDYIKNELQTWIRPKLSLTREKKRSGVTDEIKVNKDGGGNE

T2: His-tagged mAKAP 1286-1833 (bacterially expressed) (UniProt Q9WVC7)
T2 sequence (looked up): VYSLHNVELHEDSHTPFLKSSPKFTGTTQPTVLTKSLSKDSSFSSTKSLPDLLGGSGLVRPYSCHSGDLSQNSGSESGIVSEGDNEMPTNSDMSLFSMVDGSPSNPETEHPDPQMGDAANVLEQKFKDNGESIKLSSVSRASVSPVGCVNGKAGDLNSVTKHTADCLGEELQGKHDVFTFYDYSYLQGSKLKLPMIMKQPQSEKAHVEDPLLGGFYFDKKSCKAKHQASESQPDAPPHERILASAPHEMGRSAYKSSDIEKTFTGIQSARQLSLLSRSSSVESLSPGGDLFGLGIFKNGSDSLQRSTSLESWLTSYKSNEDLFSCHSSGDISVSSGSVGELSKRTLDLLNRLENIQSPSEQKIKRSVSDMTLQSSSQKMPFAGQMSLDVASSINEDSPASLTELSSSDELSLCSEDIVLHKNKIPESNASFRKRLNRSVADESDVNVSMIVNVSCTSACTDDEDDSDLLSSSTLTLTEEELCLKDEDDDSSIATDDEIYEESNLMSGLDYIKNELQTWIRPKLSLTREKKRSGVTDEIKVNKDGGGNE


What was measured:
[1] = target: T1, myc-tagged mAKAP 1286-1833; experiment: co-immunoprecipitation with myc-tag antibody
[2] = target: myc-tagged mAKAPα (UniProt Q9WVC7); experiment: co-immunoprecipitation with anti-HA antibody, HEK293 cells
[3] = target: myc-tagged mAKAPβ (muscle A-kinase anchoring protein beta), full-length (Rattus norvegicus (Rat)) (UniProt Q9WVC7); experiment: as above
[4] = target: T2, His-tagged mAKAP 1286-1833 (bacterially expressed); experiment: SPR, purified bacterially expressed proteins
[5] = target: T2, His-tagged mAKAP 1286-1833 (bacterially expressed); experiment: SPR (BIAcore T100), His-mAKAP 1286-1833 immobilised, His-RSK3 as analyte

Row | binding [1] | binding [2] | binding [3] | binding [5] | Molecule | binding [4]
1 | binds | binds | binds |  | HA-tagged RSK3 (p90 ribosomal S6 kinase type 3), full-length (from UniProt Q15349 1-733) (enzyme) | 
2 |  |  |  | binds | His-tagged full-length RSK3, unphosphorylated (bacterially expressed) (from UniProt Q15349 1-733) (enzyme) | binds
3 |  |  |  |  | ERK-phosphorylated His-RSK3 (enzyme, phosphorylated in vitro with ERK2; sites of this preparation not given, also called Phospho-His-RSK3 (ERK2); not shown: His tag) MDLSMKKFAVRRFFSVYLRRKSRSKSSSLSRLEEEGVVKEIDISHHVKEGFEKADPSQFELLKVLGQGSYGKVFLVRKVKGSDAGQLYAMKVLKKATLKVRDRVRSKMERDILAEVNHPFIVKLHYAFQTEGKLYLILDFLRGGDLFTRLSKEVMFTEEDVKFYLAELALALDHLHSLGIIYRDLKPENILLDEEGHIKITDFGLSKEAIDHDKRAYSFCGTIEYMAPEVVNRRGHTQSADWWSFGVLMFEMLTGSLPFQGKDRKETMALILKAKLGMPQFLSGEAQSLLRALFKRNPCNRLGAGIDGVEEIKRHPFFVTIDWNTLYRKEIKPPFKPAVGRPEDTFHFDPEFTARTPTDSPGVPPSANAHHLFRGFSFVASSLIQEPSQQDLHKVPVHPIVQQLHGNNIHFTDGYEIKEDIGVGSYSVCKRCVHKATDTEYAVKIIDKSKRDPSEEIEILLRYGQHPNIITLKDVYDDGKFVYLVMELMRGGELLDRILRQRYFSEREASDVLCTITKTMDYLHSQGVVHRDLKPSNILYRDESGSPESIRVCDFGFAKQLRAGNGLLMTPCYTANFVAPEVLKRQGYDAACDIWSLGILLYTMLAGFTPFANGPDDTPEEILARIGSGKYALSGGNWDSISDAAKDVVSKMLHVDPHQRLTAMQVLKHPWVVNREYLSPNQLSRQDVHLVKGAMAATYFALNRTPQAPRLEPVLSSNLAQRRGMKRLTSTRL | binds
